Test results taken from patent publication EP4076432B1, “COMPOSITION AND METHOD FOR THE PREVENTION AND TREATMENT OF OBESITY” (Vector Vitale IP LLC, priority 2019, dated 2021).

Assay: Levels of divalent metal ions in muscles, kidneys and liver in obesity model
Type: in vivo
Conditions: DIO rats (high-fat diet), zinc aspartate 4.5 mg/animal intragastrically every third day, week 10

## N[C@@H](CC(=O)[O-])C(=O)[O-].[Zn+2] [^64Zne, zinc aspartate]
kidneys
  Copper level, Kidneys: 4.94±0.82 µg/g tissue
liver
  Copper level, Liver: 3.93±0.09 µg/g tissue
  Manganese level, Liver: 1.94±0.12 µg/g tissue
